Measurements published in article PMC10987633, “Structural basis for RAD18 regulation by MAGEA4 and its implications for RING ubiquitin ligase binding by MAGE family proteins” (The EMBO Journal, 2024).
No constants are given. Whether binding was seen depends on the method and setting. In cells and extracts the contact can be indirect. A yes stands for co-enrichment or nearness to the bait. Other partners may have been found. For some of these results: A no says only that the protein was not detected with the bait. Where a sequence is shown, tags or fusion partners need not be part of it.

Sequences of proteins named here, by UniProt entry; tags and fusion partners are left off.
UniProt Q13263: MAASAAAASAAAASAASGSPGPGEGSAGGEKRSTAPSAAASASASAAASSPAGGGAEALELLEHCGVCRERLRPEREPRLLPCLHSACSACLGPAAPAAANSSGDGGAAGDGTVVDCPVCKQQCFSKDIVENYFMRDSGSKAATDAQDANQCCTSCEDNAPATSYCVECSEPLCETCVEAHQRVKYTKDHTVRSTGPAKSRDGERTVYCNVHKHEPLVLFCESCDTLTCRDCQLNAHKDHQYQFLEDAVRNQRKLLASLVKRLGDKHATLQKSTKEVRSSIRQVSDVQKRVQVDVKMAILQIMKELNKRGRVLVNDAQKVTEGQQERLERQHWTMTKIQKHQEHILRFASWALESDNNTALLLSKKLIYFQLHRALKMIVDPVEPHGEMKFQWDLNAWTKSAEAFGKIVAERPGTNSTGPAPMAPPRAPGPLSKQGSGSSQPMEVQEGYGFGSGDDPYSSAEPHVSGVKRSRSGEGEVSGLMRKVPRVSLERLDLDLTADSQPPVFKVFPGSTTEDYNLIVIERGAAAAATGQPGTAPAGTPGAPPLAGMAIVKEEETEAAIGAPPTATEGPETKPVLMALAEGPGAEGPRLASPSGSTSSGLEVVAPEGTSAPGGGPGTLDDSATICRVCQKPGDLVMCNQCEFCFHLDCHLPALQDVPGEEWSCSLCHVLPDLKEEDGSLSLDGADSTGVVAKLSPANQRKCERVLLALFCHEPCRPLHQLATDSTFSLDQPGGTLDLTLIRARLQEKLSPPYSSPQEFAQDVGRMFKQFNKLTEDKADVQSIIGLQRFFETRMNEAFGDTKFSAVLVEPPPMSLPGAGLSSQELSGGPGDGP

T1: GFP-tagged MAGEC2 L318D (human) (UniProt Q9UBF1)
T1 sequence: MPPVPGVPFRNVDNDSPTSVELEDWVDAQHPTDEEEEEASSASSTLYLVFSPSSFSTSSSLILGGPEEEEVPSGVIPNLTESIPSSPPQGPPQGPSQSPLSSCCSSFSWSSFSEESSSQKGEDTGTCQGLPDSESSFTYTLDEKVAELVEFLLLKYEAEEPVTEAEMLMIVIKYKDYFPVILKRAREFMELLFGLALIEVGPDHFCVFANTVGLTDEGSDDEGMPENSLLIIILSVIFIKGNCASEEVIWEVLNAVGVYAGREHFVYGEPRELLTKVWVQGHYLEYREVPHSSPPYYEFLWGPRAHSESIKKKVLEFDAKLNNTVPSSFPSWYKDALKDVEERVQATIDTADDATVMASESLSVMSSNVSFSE

T2: GFP-tagged MAGEC2 wild type (human) (UniProt Q9UBF1)
T2 sequence: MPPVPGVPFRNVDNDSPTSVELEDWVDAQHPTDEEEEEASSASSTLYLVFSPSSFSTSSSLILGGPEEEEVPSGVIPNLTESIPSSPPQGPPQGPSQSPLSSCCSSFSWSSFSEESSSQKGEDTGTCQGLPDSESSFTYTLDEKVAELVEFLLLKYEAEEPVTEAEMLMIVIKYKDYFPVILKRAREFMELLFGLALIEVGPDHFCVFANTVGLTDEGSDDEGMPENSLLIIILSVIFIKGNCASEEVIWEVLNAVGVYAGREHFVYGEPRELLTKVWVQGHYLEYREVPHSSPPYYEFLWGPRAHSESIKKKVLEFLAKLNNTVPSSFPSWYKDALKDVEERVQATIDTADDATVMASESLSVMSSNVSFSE


How the values were obtained:
[1] = target: T1, GFP-tagged MAGEC2 L318D (human); test: affinity purification with mass spectrometry; GFP-MAGEC2 WT or L318D expressed in HEK293T; 500 µg lysate (50 mM Tris pH 7.5, 150 mM NaCl, 1% Triton X-100) on GFP-Trap agarose 2 h at 4 °C; TMT quantitative mass spectrometry, WT against L318D, triplicate
[2] = target: T2, GFP-tagged MAGEC2 wild type (human); test: as above

| Molecule | binding [1] | binding [2] |
| --- | --- | --- |
| Tripartite motif-containing protein 28 (TRIM28), endogenous (from UniProt Q13263 1-835) (enzyme) | no binding | binds |
| MAGEB2 (protein, UniProt O15479 1-319) MPRGQKSKLRAREKRRKARDETRGLNVPQVTEAEEEEAPCCSSSVSGGAASSSPAAGIPQEPQRAPTTAAAAAAGVSSTKSKKGAKSHQGEKNASSSQASTSTKSPSEDPLTRKSGSLVQFLLYKYKIKKSVTKGEMLKIVGKRFREHFPEILKKASEGLSVVFGLELNKVNPNGHTYTFIDKVDLTDEESLLSSWDFPRRKLLMPLLGVIFLNGNSATEEEIWEFLNMLGVYDGEEHSVFGEPWKLITKDLVQEKYLEYKQVPSSDPPRFQFLWGPRAYAETSKMKVLEFLAKVNGTTPCAFPTHYEEALKDEEKAGV | no binding | binds |
